For 4 molecules, binding results are on record in article PMC13334769.

The chains behind the UniProt entries cited, without tags or fusion partners. Where a name states a change or a piece, a line headed by the entry shows the natural chain unless it says otherwise.
UniProt Q9GZV5: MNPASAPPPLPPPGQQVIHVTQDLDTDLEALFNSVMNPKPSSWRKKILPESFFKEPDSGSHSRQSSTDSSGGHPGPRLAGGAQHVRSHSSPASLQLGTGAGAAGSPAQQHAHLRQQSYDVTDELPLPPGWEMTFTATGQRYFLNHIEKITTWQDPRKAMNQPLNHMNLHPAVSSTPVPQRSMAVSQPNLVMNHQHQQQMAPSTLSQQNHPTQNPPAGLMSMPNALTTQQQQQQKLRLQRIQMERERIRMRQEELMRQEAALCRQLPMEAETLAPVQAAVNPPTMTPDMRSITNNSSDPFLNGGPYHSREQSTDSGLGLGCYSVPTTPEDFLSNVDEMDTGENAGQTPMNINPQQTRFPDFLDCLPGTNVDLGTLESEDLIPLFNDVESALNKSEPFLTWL
UniProt P05412: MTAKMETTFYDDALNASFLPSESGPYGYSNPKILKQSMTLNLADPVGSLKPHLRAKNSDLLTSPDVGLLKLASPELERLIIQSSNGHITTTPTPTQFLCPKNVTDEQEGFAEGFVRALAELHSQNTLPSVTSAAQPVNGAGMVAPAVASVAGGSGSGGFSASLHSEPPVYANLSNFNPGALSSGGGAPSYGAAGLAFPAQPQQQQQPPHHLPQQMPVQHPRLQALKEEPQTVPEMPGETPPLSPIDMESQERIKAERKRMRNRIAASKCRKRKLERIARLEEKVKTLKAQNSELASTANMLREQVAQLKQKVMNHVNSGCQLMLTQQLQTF
UniProt Q15562: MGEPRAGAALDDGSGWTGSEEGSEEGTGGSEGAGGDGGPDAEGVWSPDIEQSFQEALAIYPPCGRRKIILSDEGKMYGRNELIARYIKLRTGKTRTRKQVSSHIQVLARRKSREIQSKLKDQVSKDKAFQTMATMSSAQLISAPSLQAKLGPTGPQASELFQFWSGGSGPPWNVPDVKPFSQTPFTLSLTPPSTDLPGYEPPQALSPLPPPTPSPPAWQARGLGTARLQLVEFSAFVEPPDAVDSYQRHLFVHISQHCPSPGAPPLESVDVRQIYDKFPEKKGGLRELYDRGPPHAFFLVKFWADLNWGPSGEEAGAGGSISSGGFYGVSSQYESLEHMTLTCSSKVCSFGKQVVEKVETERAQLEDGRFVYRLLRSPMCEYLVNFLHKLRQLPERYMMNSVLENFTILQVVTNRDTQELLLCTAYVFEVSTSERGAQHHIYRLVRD

The target in assay [1] is transcriptional co-activator with PDZ-binding motif (TAZ) (human (endogenous in AGS and GA0518)) (UniProt Q9GZV5). Kind of assay: co-IP; endogenous proteins in GA0518 cell lysates, control against YAP1 knockout (LentiCRISPR/Cas9) or YAP1 ASO treatment; precipitating antibody not stated for this experiment.
For assay [2] the target is unchanged. As to the kind of experiment: co-IP; endogenous proteins in AGS and GA0518 cell lysates; precipitated with an anti-TAZ antibody overnight at 4°C, Protein A/G magnetic beads, Western blot.
In assay [3] the target is Yes-associated protein 1 (YAP1) (human (endogenous in AGS and GA0518)), P46937. As to the kind of experiment: co-IP; endogenous proteins in AGS and GA0518 cell lysates; precipitated with an anti-YAP1 antibody overnight at 4°C, Protein A/G magnetic beads, Western blot. The conditions noted are these: remark: other sources report otherwise.

Results are given in words; binding and its absence hold for the method and conditions named. Binding seen in cells or lysates may run through a third protein. Some binding calls cover weakened binding; strength is not graded here.

On to “AP-1 heterodimer (c-JUN and FOSB) (from UniProt P05412 1-331; P53539 1-338) (complex)”, for which the binding result in assay [1] was “binds”.
In the case of “TEA domain transcription factor 2 (TEAD2) (from UniProt Q15562 1-447)”, in assay [2], the binding entry is recorded as “binds”.
On the same count and under the same terms, next, “Yes-associated protein 1 (YAP1) (from UniProt P46937 1-504) (other; other documents disagree on this pair)”: “binds”.

B1: TEA domain transcription factor 3 (TEAD3), Q99594 1-435 (protein)
chain: MASNSWNASSSPGEAREDGPEGLDKGLDNDAEGVWSPDIEQSFQEALAIYPPCGRRKIILSDEGKMYGRNELIARYIKLRTGKTRTRKQVSSHIQVLARKKVREYQVGIKAMNLDQVSKDKALQSMASMSSAQIVSASVLQNKFSPPSPLPQAVFSTSSRFWSSPPLLGQQPGPSQDIKPFAQPAYPIQPPLPPTLSSYEPLAPLPSAAASVPVWQDRTIASSRLRLLEYSAFMEVQRDPDTYSKHLFVHIGQTNPAFSDPPLEAVDVRQIYDKFPEKKGGLKELYEKGPPNAFFLVKFWADLNSTIQEGPGAFYGVSSQYSSADSMTISVSTKVCSFGKQVVEKVETEYARLENGRFVYRIHRSPMCEYMINFIHKLKHLPEKYMMNSVLENFTILQVVTSRDSQETLLVIAFVFEVSTSEHGAQHHVYKLVKD
As for B1, the binding result in assay [3] is reported as “binds”.
